PubChem BioAssay AID602196, INSERM – 2012
Shown is one part, drawn at random, of about 23,000 deposited reagents. 455 of them (2%) count as active. 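Active includes both protection and sensitisation; some change values fall well beyond the stated -50 to +50 range.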 No sequences are given here. Not stated in the record: the amount of reagent.

Test: 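Modifiers of cisplatin sensitivity in A549 cells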
System: human A549 lung cancer cells
Reagents: siRNA pair against human genes
Timing: 48 h transfection before cisplatin; time from cisplatin to read-out not stated
Treatment: cisplatin at a dose killing half of control-siRNA cells; exact dose and duration not given
Measured: 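Shift in cisplatin death relative to control siRNA, from -50 (all cells die) to +50 (no cells die); siRNAs harmful on their own scored 0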
Direction: two-siRNA summed score (-2 to +2): higher = both siRNAs protect from cisplatin killing; -2 means both sensitise; mean protection from cisplatin (shift in death) and protection from cisplatin (shift in death), siRNA C and protection from cisplatin (shift in death), siRNA D: higher = protection from cisplatin killing
Active means: 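siRNAs harmful alone (LDH or WST-1) get 0; others get +1 for less and -1 for more cisplatin killing; genes are active when the two siRNAs give the same sign, summing to ±2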
Calls: active = both siRNAs shift cisplatin killing the same way; inactive = no consistent shift, or siRNA harmful alone

| gene | two-siRNA summed score (-2 to +2) | mean protection from cisplatin (shift in death) (%) | protection from cisplatin (shift in death), siRNA C (%) | protection from cisplatin (shift in death), siRNA D (%) | activity call |
| --- | --- | --- | --- | --- | --- |
| WDR17 | 1 | 12.8 | 13.7 | 11.9 | inactive |
| LOC400134 | 0 | 9.6 | 7.4 | 11.8 | inactive |
| FAM133A | 0 | 15.2 | 14.6 | 15.7 | inactive |
| MRPL19 | 0 | 4.1 | 4.2 | 4 | inactive |
| LOC440048 | 0 | 0.4 | -5.6 | 6.4 | inactive |
| ZNF618 | 0 | 8.7 | 10.5 | 6.8 | inactive |
| SLC41A1 | 0 | 2.9 | 7.6 | -1.8 | inactive |
| RPL4 | 0 | 18.5 | 26.5 | 10.4 | inactive |
| FBLIM1 | -1 | -12 | -26.6 | 2.7 | inactive |
| ZNF767P | 0 | -2 | 16.9 | -20.9 | inactive |
| FRAT2 | -1 | -25.3 | -14.2 | -36.4 | inactive |

3 entries already listed, arranged by “protection from cisplatin (shift in death), siRNA C (%)”, low to high:
| gene | two-siRNA summed score (-2 to +2) | mean protection from cisplatin (shift in death) (%) | protection from cisplatin (shift in death), siRNA C (%) | protection from cisplatin (shift in death), siRNA D (%) | activity call |
| --- | --- | --- | --- | --- | --- |
| LOC440048 | 0 | 0.4 | -5.6 | 6.4 | inactive |
| SLC41A1 | 0 | 2.9 | 7.6 | -1.8 | inactive |
| ZNF618 | 0 | 8.7 | 10.5 | 6.8 | inactive |

More results follow:
| gene | two-siRNA summed score (-2 to +2) | mean protection from cisplatin (shift in death) (%) | protection from cisplatin (shift in death), siRNA C (%) | protection from cisplatin (shift in death), siRNA D (%) | activity call |
| --- | --- | --- | --- | --- | --- |
| MED29 | 0 | 12.5 | 12.6 | 12.5 | inactive |
| TNFAIP2 | 1 | 9.4 | -6.6 | 25.3 | inactive |
| DCUN1D3 | 0 | -2.1 | -3.2 | -1.1 | inactive |
| H2BC11 | 0 | 30.9 | 42.5 | 19.2 | inactive |
| KIF5B | 0 | 3.8 | 12.4 | -4.7 | inactive |
| NAAA | 0 | 9.1 | 9.2 | 9.1 | inactive |
| LINC01141 | 0 | -2.7 | 5.4 | -10.7 | inactive |
| C9orf72 | 0 | 8.6 | 13.3 | 4 | inactive |
| GLS2 | 0 | 3.5 | -2.2 | 9.1 | inactive |
| HEPHL1 | 0 | 7.9 | 16.8 | -1.1 | inactive |
| OR2T12 | 1 | 12.9 | 35.2 | -9.5 | inactive |
| RTCB | 0 | 2.2 | 0.3 | 4.1 | inactive |
